Data source: PubChem BioAssay AID504786 (Drosophila RNAi Screening Center, 2011)
Purpose: 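Positive regulators of HIF-driven reporter output in Drosophila cells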 (primary screen). Cells: Drosophila S2 cells with a stable HIF luciferase reporter. Reagent: long dsRNA against Drosophila genes, about 0.2 µg dsRNA per well of a 384-well plate. Timing: three days of knock-down, then 20 h of DFO before reading. Conditions: desferrioxamine (DFO) at 100 µM, an iron chelator that mimics hypoxia, for 20 h. Detection: 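HIF reporter luminescence in cells given 100 µM DFO for 20 h, using the mouse ldh-a hypoxia-response element, scored as per-plate z-scores; higher means greater loss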. Scale: z-score: higher = stronger loss of HIF reporter signal.
The deposit covers about 21,000 reagents; shown is a random part of those with a known target gene and a result. 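Primary screen; positive scores mean lost reporter signal, so the sign may be inverted from the usual convention.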 The numbers tell different reagents against one gene apart.

predicted target | dsRNA no. | z-score, replicate 1 | z-score, replicate 2
CG5390 | 1 | 0 | -0.2
mTerf3 (mitochondrial transcription termination factor 3) | 1 | -0.3 | -0.5
CG34460 | 1 | -0.2 | 0.4
axed (axundead) | 1 | -0.3 | -0.5
axed (axundead) | 2 | -0.3 | -0.6
S6kII (Ribosomal protein S6 kinase II) | 1 | -0.3 | -1.1
JYalpha | 1 | -0.3 | -0.4
Sfp38D (Seminal fluid protein 38D) | 1 | -0.2 | -0.4
Cht8 (Chitinase 8) | 1 | 0.1 | 0
Ald1 (Aldolase 1) | 1 | -0.5 | 0.6
CG3513 | 1 | -0.4 | -0.3
CR18166 (pseudo) | 1 | -0.4 | -0.3
CR18166 (pseudo) | 2 | -0.1 | 1.1
Bre1 | 1 | 0.2 | 0.6
CG9173 | 1 | -0.4 | -0.4
CG7548 | 1 | -0.2 | 0
grsm (granny smith) | 1 | -0.2 | -0.5
grsm (granny smith) | 2 | -0.2 | -0.5
Mat1 (Menage a trois 1) | 1 | -0.3 | -0.2
nrm (neuromusculin) | 1 | -0.4 | -0.5
nrm (neuromusculin) | 2 | -0.4 | 0.1
nrm (neuromusculin) | 3 | -0.2 | -0.3
dimm (dimmed) | 1 | -0.2 | -0.3
betaNACtes4 (Nascent-associated complex beta-subunit-like, testis 4) | 1 | -0.3 | -1.2
CG4751 | 1 | -0.2 | -0.4
Rbp9 (RNA-binding protein 9) | 1 | -0.2 | -0.3
Rbp9 (RNA-binding protein 9) | 2 | -0.4 | -0.6
Kul (Kuzbanian-like) | 1 | -0.3 | -0.6
CG13358 | 1 | -0.3 | -0.1
CG5003 | 1 | -0.1 | 0
CG30350 | 1 | -0.3 | -0.2
Arc2 (Activity-regulated cytoskeleton associated protein 2) | 1 | 0 | 0.2
SkpE (SKP1-related E) | 1 | -0.3 | -0.1
heph (hephaestus) | 1 | -0.2 | 0
heph (hephaestus) | 2 | 0.1 | -0.3
heph (hephaestus) | 3 | -0.4 | -0.9
heph (hephaestus) | 4 | -0.3 | -0.7
sip3 (septin interacting protein 3) | 1 | -0.4 | -0.4
5-HT7 (5-hydroxytryptamine (serotonin) receptor 7) | 1 | -0.3 | -0.1
AspRS-m (Aspartyl-tRNA synthetase, mitochondrial) | 1 | 0.8 | -0.3
Eglp1 (Entomoglyceroporin 1) | 1 | -0.2 | 0.2
Cpr11B (Cuticular protein 11B) | 1 | 0 | -0.5
Cdk2 (Cyclin-dependent kinase 2) | 1 | 1.4 | 1.1
APC7 (Anaphase Promoting Complex subunit 7) | 1 | -0.4 | -0.5
Nrt (Neurotactin) | 1 | -0.3 | -0.5
CG12783 | 1 | -0.2 | -0.1
ThrRS (Threonyl-tRNA synthetase) | 1 | 0.1 | 0.1
CG4563 | 1 | -0.3 | 0.5
flip (flippy) | 1 | -0.3 | -0.4
E(spl)m2-BFM (Enhancer of split m2, Bearded family member) | 1 | -0.7 | -0.5
CG7702 | 1 | -0.1 | -0.2
CG10257 | 1 | -0.3 | -0.7
wrd (well-rounded) | 1 | 3 | 0.7
wrd (well-rounded) | 2 | -1.1 | -0.3
CG3927 | 1 | -0.3 | -0.3
MBD-like (Methyl-CpG binding domain protein-like) | 1 | 0.2 | 0.6
CG15812 | 1 | -0.4 | -0.6
ADD1 (ADD domain-containing protein 1) | 1 | -0.3 | -0.3
Mctp (Multiple C2 domain and transmembrane region protein) | 1 | -0.4 | 0.1
CG5225 | 1 | 0 | -0.6
Obp93a (Odorant-binding protein 93a) | 1 | 0.2 | -0.8
Xpc (Xeroderma pigmentosum, complementation group C) | 1 | -0.2 | 0
ken (ken and barbie) | 1 | 3 | 5.8
CG16865 | 1 | -0.3 | 0.7
CG1317 | 1 | -0.2 | -0.1
Cf2 (Chorion factor 2) | 1 | 1.1 | 1.4
mRpL48 (mitochondrial ribosomal protein L48) | 1 | 0.7 | 1
CG13875 | 1 | -0.3 | -0.4
ras (raspberry) | 1 | -0.6 | -1
stumps | 1 | -0.6 | -0.4
stumps | 2 | 5.3 | 1.9
stumps | 3 | -0.2 | -0.2
Prat (Phosphoribosylamidotransferase) | 1 | -0.1 | 0.6
Dh44 (Diuretic hormone 44) | 1 | 0.1 | 0.5
Dh44 (Diuretic hormone 44) | 2 | -0.3 | -0.6
CG30098 | 1 | 0.2 | -0.2
CG8191 | 1 | -0.4 | 0.4
CG31643 | 1 | 0.1 | 0.1
dnc (dunce) | 1 | 1.9 | 0.2
dnc (dunce) | 2 | -0.1 | -0.5
dnc (dunce) | 3 | -0.2 | -0.4
dnc (dunce) | 4 | -0.4 | -0.8
dnc (dunce) | 5 | -0.3 | 0.1
CG5326 | 1 | -0.1 | -0.4
CG5326 | 2 | -0.2 | -0.2
CG30389 | 1 | 0 | -0.1
CG30389 | 2 | 1.1 | 1.3
Sans (Scaffold protein containing ankyrin repeats and SAM domain) | 1 | 0.2 | -0.1
Zir (Zizimin-related) | 1 | -0.2 | -0.4
Csgalnact (Chondroitin sulfate N-acetylgalactosaminyltransferase) | 1 | -0.3 | -0.4
CG10512 | 1 | -0.2 | -0.2
Eig71Ed (Ecdysone-induced gene 71Ed) | 1 | -0.4 | 0
GluRIA (Glutamate receptor IA) | 1 | -0.4 | -0.8
Rab26 | 1 | 0.3 | 1
Rab26 | 2 | -0.2 | 0.3
Rab26 | 3 | -0.3 | 0.3
l(1)G0289 (lethal (1) G0289) | 1 | -0.3 | -0.6
dpp (decapentaplegic) | 1 | -0.2 | -0.5
dpp (decapentaplegic) | 2 | 0.2 | 0.1
dpp (decapentaplegic) | 3 | -0.3 | -0.6
P5cr-2 (Pyrroline-5-carboxylate reductase-like 2) | 1 | -0.2 | -0.6
Vap33 (VAMP-associated protein 33kDa) | 1 | -0.3 | -0.2
mtsh (mitoshell) | 1 | -0.4 | -0.6
mdy (midway) | 1 | -0.4 | -0.4
mdy (midway) | 2 | -0.3 | -0.1
CG9380 | 1 | -0.2 | 0.1

Looked up above:
For “z-score, replicate 1”, dpp (decapentaplegic) #1 is entered as -0.2
Under “z-score, replicate 1”, mdy (midway) #2 is entered as -0.3
Under “z-score, replicate 1”, CG13875 is entered as -0.3
dnc (dunce) #1, z-score, replicate 2 = 0.2
Result of wrd (well-rounded) #1 in “z-score, replicate 2”: 0.7
heph (hephaestus) #1, z-score, replicate 1 = -0.2
